Primary screen of a compound library

Chains of the proteins cited; added tags and fusions are not shown. Residues count along the entry.
UniProt Q4DA54, 1-478: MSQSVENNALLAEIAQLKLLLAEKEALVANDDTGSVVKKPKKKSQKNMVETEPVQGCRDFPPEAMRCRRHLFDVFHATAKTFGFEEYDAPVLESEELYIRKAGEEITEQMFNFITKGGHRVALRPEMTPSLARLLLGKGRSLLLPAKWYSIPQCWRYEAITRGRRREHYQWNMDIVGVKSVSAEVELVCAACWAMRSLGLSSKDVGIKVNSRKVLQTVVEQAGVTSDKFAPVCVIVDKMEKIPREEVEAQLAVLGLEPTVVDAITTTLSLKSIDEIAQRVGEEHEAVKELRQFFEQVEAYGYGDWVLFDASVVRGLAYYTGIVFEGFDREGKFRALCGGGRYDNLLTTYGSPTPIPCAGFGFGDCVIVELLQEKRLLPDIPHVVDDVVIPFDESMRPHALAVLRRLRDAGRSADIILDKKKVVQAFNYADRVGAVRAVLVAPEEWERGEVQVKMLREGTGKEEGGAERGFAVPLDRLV
UniProt P9WNZ1, whole entry: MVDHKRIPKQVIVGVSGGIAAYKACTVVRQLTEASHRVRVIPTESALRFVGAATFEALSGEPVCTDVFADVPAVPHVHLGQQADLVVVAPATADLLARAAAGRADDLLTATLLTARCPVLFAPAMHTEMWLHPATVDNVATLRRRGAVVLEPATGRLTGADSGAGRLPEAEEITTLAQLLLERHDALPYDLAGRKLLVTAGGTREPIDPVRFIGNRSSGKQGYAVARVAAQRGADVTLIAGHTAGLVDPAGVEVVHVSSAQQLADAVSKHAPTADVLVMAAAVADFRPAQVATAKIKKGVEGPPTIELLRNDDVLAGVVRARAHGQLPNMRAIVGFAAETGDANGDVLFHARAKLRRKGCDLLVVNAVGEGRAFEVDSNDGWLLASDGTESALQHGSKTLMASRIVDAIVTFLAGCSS
UniProt A4I591, 1-473: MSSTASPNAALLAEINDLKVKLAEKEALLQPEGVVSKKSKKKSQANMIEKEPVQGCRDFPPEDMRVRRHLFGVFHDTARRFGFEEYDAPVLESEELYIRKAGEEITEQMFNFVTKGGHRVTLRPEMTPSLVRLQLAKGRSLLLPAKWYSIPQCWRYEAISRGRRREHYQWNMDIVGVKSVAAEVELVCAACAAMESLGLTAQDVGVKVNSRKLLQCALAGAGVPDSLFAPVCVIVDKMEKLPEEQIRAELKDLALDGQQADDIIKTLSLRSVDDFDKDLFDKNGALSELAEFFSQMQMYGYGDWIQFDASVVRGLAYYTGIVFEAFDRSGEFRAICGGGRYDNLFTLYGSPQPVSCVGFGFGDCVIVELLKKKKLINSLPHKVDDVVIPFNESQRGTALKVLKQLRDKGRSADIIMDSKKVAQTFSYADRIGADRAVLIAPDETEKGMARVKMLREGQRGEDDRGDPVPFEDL

Data taken from ChEMBL document CHEMBL3988442, “University of Dundee, Small-Polar-MMV Screening Library” (2021).

Values are the deposited “Percent Effect”, in %. How 0% and 100% were set is not recorded. Most values in the screen are low, and negative values occur. Compounds were drawn at random from those tested, without regard to their results. Two or more numbers in one place are separate tests of the same structure; such repeats can differ widely. A dash means the value is not listed here; it may have been measured.

TcHisRS: 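Enzyme assay of histidyl-tRNA synthetase; the read-out is not stated. Target: Histidine-tRNA ligase, Trypanosoma cruzi CL Brener (UniProt Q4DA54). Compounds at 30 µM. Direction is inferred from retests: higher values go with stronger inhibition. Of about 69,000 compounds tested this way, about 31 (0.045%) reached 50% or more in at least one test.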
Leishmania in macrophages: 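Cell assay of Leishmania donovani living inside macrophages; the read-out is not stated. Concentration: 30 µM. Direction is inferred from retests: higher values go with stronger inhibition. Of about 69,000 compounds tested this way, about 1,000 (1.5%) reached 50% or more in at least one test.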
Toxoplasma: 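Assay of Toxoplasma gondii numbers, read through their beta-galactosidase reporter with a colour substrate. Tested at 10 µM. Higher reads as fewer parasites (inferred from which compounds were picked for retests). Size under these conditions: about 67,000 compounds, about 260 of them at 50% or above in at least one test.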
CoaBC: 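Enzyme assay of CoaBC with a phosphate dye (Biomol Green) read at 650 nm. Target: Coenzyme A biosynthesis protein CoaBC, Mycobacterium tuberculosis (UniProt P9WNZ1). Tested at 30 µM. Higher reads as stronger inhibition, judged from the few compounds that gave an IC50. Most strong results did not repeat in a second test. Of about 67,000 compounds tested this way, about 40 (0.06%) reached 50% or more in at least one test.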
LiHisRS: 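Enzyme assay of histidyl-tRNA synthetase; the read-out is not stated. Target: Histidine-tRNA ligase, Leishmania infantum (UniProt A4I591). Compounds at 30 µM. The record gives no direction; compounds that gave an IC50 in retests scored well above the rest, so higher reads as stronger inhibition. The assay is labelled LdHisRS but filed under L. infantum. Size under these conditions: about 69,000 compounds, about 410 of them at 50% or above in at least one test.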

| SMILES | TcHisRS | Leishmania in macrophages | Toxoplasma | CoaBC | LiHisRS |
|---|---|---|---|---|---|
| `O=C(O)C(F)(F)F.[H][C@@]12COC[C@H](NS(C)(=O)=O)[C@]1([H])CN(Cc1ccc(C)o1)C2` | - | -8.494% | 3.205% | - | - |
| `Cn1ccc(C(=O)NC2CCC23CCN(Cc2cccnc2)CC3)c1` (stereo unspecified) | 4.132% | - | - | -7.097% | -47.62% |
| `CCOc1ccnc(N2CCN(C(=O)c3ccn(C)c(=O)c3)CC2)n1` | 9.884% | 5.852% | -14.88% | 0.2193% | 10.71% |
| `Cc1nc2c(cc1C(=O)O)CCN(CC1CC1)CC2.O=C(O)C(F)(F)F.O=C(O)C(F)(F)F` | - | -0.6971% | -5.352% | - | - |
| `O=C(c1ccc(S(=O)(=O)NCC(F)F)cc1)N1CC[C@H]2CNC[C@H]21` | 9.195% | - | - | 3.813% | 12.9% |
| `CCN1CCOCC2(C1)CN(C(=O)c1c(C)noc1C)CCO2` (stereo unspecified) | -1.105% | 48.7% | 3.057% | 2.228% | 11.71% |
| `c1cnn(CC2CCCN2Cc2cn3ccsc3n2)c1` (stereo unspecified) | 0.8798% | -9.221% | -10.41% | 1.579% | 6.481% |
| `COCC1CN(C(=O)c2ccoc2)Cc2cnn(CC3CCOCC3)c21.O=C(O)C(F)(F)F` (stereo unspecified) | - | 38.09% | 8.01% | - | - |
| `CN(C)C(=O)CN1C[C@@H]2CC[C@H](C1)N(C(=O)CCn1cncn1)C2` | 6.667% | - | - | -9.595% | 17.31% |
| `O=C(c1ccc(-n2cnnn2)cc1)N1CCCC(n2ccnc2)C1` (stereo unspecified) | -0.5814% | 34.45% | 1.18% | 12.89% and 31.58% | -23.21% |
| `CC(=O)c1cnc(N(C)Cc2cnc3ccccc3n2)nc1C` | 7.772% | 14.84% | 12.61% | 12.01% | 27.96% |
| `COCc1nc2cc3c(cc2c(=O)o1)OCCCO3` | 11.11% | 30.65% | 3.999% | -1.104% | 15.69% |
| `c1ccc(-n2cc(CN3CCCCC3Cn3cncn3)nn2)cc1` (stereo unspecified) | 5.634% | 9.139% | -8.509% | 4.198% | 18.26% |
| `Cc1ccc(N2CCC3(CN(Cc4cccs4)CCC3(F)F)C2)nn1` (stereo unspecified) | 2.222% | - | - | 5.61% | 16.98% |
| `[H][C@]12CC[C@]([H])(CN(Cc3cc(C(C)(C)C)[nH]n3)C1)N(Cc1ccccn1)C2` | - | 9.516% | -33.33% | - | - |
| `O=C(NCc1ccc2c(c1)CCCO2)c1ccccc1C1CCNC1` (stereo unspecified) | 3.659% | -48.99% | -17.11% | 3.418% | 3.614% |
| `COc1cccc(-c2ccc3nc(C4CCN(C(C)=O)CC4)nn3c2)c1` | -6.145% | 40.52% | -11.21% | 5.939% | 9.615% |
| `Cc1cc(C)n(-c2cncc(NCCNS(C)(=O)=O)n2)n1` | 3.614% | -4.824% and 4.313% | 3.738% | -2.545% | 20.51% |
| `O=C(O)C(F)(F)F.O=C(O)C(F)(F)F.O=C1CC2(CCN(CC3CC3)C2)CN1c1cccnc1` (stereo unspecified) | - | -5.251% | 1.648% | - | - |
| `COCC(O)CN(C)C(=O)NC1CCN(Cc2ccccn2)CC1` (stereo unspecified) | -1.527% | 17.87% | 3.176% | 3.855% | 21.92% |
| `CN1CCN(Cc2noc(CC3CCc4ccccc43)n2)CC1` (stereo unspecified) | 2.703% | 7.273% | 2.095% | -13.25% | 8.547% |
| `CN1CC2(CCN(C(=O)c3ccc4nonc4c3)CC2)CC1=O` | 3.352% | 0.6578% | 8.439% | 3.856% | 7.292% |
| `O=C(O)C(F)(F)F.[H][C@@]12COC[C@]1([H])[C@@H](OCc1csc(C)n1)CN2C(=O)c1cccn1C` | - | 25.02% | -15.13% | - | - |
| `O=C(O)C(F)(F)F.[H][C@]12CCC(=O)N(c3cnn(C)c3)[C@@]1([H])CCN2Cc1csc(C)n1` | - | 2.736% | 3.565% | - | - |
| `Cc1nc(N2CCOCC2)nc2c1CCN(C(=O)N1CCCC1)CC2` | 3.365% | 6.65% | -22.04% | 2.588% | 17.43% |
| `CC(C)(NS(C)(=O)=O)C(=O)NCCc1csc2ccccc12` | 2.532% | -19.3% | 0.9702% | 2.404% | 12.5% |
| `Cc1occc1-c1nc(NC2CCCC2)ncc1-c1ccccn1` | 4.255% | -24.54% | -17.07% | 4.412% | 36.46% |
| `COC[C@H]1CCC[C@]12CN(Cc1cccc(C)n1)CCO2` | 4.878% | -15.25% | 72.48% | -4.261% | 17.95% |
| `O=C([C@H]1C[C@H]2OCC[C@H]2N(CC2CCOCC2)C1)N1CCCC1` | 0% | - | - | 9.514% | 17.54% |
| `O=C1COC2(COCCN(c3ccccn3)C2)CN1c1cccc(F)c1` (stereo unspecified) | 7.216% | - | - | 5.665% | 16% |
| `Cc1nc(C(C)C)sc1C(=O)N1CCN(C2CCSCC2)CC1` | 14% | 4.689% | 18.16% | 9.091% | 18.37% |
| `O=C1c2cccnc2OC(CN2CCOCC2)CN1CC1CC1` (stereo unspecified) | 4.624% | 16.15% | 1.035% | -1.595% | 0% |
| `Cn1cc(-c2cnc(-c3ccnn3C)nc2)cc1C(=O)N1CCCC1` | 4.444% | -10.63% | 10.48% | 4.39% | 9.434% |
| `COCCN1CCC(NCc2c(C(C)C)nn(C)c2N(C)C)CC1` | -1.176% | -10.38% | 8.207% | -3.686% | -2.381% |
| `COc1cccc2c1OCC(C(=O)NCCCn1nc(C)c(Cl)c1C)C2` (stereo unspecified) | 3.922% | 10.53% | -6.019% | 1.951% | 11.2% |
| `Cc1nn(C)cc1-c1ccnc(N(C)Cc2cnn(C)c2)n1` | 13.79% | 9.576% | - | 5.289% | 12.9% |
| `CC(C)CC(O)C1CCN(C(=O)c2coc(CN3CCOCC3)c2)CC1` (stereo unspecified) | 7.018% | 9.166% | 13.61% | 1.11% | 16.13% |
| `O=C(O)C1CN(c2cncc(Cc3ccccc3F)n2)C1` | 10.61% | 17.92% | 1.346% | 3.679% | 7.246% |
| `COc1ccc2c(c1)CN(Cc1ccco1)C(=O)CCN2` | -1.124% | 6.749% | -24.83% | -0.2421% | 18.37% |
| `Cc1nc(CN2CCc3ncnc(-c4ccccc4)c3CC2)cs1.O=C(O)C(F)(F)F` | - | 41.98% | -5.961% | - | - |
| `N#Cc1cccc(Cl)c1NC1CCN(CC(N)=O)CC1` | 4.294% | -17.94% | -2.51% | 6.53% | 7.407% |
| `Cc1nn(C)c2nc(N(Cc3cnn(C)c3)C3CCCCC3)sc12` | 5.732% | 12.63% | 0.7551% | - | 18.31% |
| `c1cn(Cc2nnc(C3CCN(C4CCCCC4)CC3)n2C2CC2)cn1` | 2.273% | 31.9% | 3.954% | -9.636% | 15% |
| `CCn1ncc2c1CN(C(=O)c1ccc3c(c1)OCO3)CC2COC` (stereo unspecified) | 2.674% | 24.52% | -14.71% | 5.833% | 12.82% |
| `CS(=O)(=O)N1CCC(c2nnc3ccc(C(=O)NC4CCC4)cn23)C1` (stereo unspecified) | 2.4% | 31.69% | -0.2875% | 10.4% | 11.5% |
| `CCOC(=O)[C@@H]1CN2CCNC[C@@H]2[C@H]1c1ccccc1` | 1.124% | - | - | -2.179% | 6.122% |
| `Cc1nc(-c2cc(C(=O)O)co2)cs1` | 5.882% | 6.652% | 2.144% | 25.52% and 24.34% | 43.33% |
| `CN(C)C(=O)c1cccnc1N1CCOC(c2ccc(Cl)cc2)C1` (stereo unspecified) | 6.186% | 23.04% | -2.363% | -3.297% | 8.571% |
| `O=C(O)C(F)(F)F.O=C(O)C(F)(F)F.[H][C@@]12CN(CC)C[C@]1([H])[C@H](OC)CCN2S(=O)(=O)c1cccnc1` | - | -25.11% | 0.8319% | - | - |